Experimental findings from article PMC9974832 are described below.

Amino acid sequences for entries named in this document (tags omitted).
UniProt Q96B97: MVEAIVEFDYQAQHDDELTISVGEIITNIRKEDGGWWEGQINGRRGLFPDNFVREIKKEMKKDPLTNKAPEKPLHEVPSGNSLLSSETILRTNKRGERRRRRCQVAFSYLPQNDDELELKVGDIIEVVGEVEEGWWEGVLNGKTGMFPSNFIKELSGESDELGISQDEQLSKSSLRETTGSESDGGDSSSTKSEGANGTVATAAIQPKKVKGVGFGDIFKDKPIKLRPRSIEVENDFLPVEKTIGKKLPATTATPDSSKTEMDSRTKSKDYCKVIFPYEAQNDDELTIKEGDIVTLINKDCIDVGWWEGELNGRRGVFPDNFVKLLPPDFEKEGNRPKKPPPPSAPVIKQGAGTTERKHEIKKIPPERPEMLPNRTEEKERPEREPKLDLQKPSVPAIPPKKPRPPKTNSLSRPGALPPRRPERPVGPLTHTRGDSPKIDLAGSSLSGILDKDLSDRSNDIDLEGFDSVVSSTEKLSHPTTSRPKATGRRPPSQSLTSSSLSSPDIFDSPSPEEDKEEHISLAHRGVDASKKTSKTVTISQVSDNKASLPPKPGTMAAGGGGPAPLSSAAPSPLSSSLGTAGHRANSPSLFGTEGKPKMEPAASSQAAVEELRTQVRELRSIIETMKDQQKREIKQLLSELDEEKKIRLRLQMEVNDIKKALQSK
UniProt Q8R550: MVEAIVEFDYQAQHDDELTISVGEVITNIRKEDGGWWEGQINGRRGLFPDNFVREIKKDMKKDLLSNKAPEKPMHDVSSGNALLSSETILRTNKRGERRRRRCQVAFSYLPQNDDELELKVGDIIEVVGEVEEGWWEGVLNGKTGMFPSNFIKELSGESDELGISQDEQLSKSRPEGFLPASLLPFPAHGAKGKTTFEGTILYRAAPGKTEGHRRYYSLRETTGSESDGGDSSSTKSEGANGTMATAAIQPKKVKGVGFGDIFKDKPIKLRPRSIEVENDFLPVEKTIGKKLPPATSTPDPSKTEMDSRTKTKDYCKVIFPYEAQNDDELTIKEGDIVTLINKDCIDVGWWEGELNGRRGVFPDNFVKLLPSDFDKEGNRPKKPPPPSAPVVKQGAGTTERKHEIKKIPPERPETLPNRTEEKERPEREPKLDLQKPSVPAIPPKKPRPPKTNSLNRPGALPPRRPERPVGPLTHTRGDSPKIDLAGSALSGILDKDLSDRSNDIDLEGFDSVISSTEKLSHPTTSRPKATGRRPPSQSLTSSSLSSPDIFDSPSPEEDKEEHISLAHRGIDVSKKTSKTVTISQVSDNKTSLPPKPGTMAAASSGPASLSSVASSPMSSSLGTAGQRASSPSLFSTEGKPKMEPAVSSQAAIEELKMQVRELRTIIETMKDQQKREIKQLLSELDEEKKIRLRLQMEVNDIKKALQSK

Assay [1] deals with T1, ARAP1 (human (endogenous in HRMCs)) (UniProt Q96P48).
T1 sequence: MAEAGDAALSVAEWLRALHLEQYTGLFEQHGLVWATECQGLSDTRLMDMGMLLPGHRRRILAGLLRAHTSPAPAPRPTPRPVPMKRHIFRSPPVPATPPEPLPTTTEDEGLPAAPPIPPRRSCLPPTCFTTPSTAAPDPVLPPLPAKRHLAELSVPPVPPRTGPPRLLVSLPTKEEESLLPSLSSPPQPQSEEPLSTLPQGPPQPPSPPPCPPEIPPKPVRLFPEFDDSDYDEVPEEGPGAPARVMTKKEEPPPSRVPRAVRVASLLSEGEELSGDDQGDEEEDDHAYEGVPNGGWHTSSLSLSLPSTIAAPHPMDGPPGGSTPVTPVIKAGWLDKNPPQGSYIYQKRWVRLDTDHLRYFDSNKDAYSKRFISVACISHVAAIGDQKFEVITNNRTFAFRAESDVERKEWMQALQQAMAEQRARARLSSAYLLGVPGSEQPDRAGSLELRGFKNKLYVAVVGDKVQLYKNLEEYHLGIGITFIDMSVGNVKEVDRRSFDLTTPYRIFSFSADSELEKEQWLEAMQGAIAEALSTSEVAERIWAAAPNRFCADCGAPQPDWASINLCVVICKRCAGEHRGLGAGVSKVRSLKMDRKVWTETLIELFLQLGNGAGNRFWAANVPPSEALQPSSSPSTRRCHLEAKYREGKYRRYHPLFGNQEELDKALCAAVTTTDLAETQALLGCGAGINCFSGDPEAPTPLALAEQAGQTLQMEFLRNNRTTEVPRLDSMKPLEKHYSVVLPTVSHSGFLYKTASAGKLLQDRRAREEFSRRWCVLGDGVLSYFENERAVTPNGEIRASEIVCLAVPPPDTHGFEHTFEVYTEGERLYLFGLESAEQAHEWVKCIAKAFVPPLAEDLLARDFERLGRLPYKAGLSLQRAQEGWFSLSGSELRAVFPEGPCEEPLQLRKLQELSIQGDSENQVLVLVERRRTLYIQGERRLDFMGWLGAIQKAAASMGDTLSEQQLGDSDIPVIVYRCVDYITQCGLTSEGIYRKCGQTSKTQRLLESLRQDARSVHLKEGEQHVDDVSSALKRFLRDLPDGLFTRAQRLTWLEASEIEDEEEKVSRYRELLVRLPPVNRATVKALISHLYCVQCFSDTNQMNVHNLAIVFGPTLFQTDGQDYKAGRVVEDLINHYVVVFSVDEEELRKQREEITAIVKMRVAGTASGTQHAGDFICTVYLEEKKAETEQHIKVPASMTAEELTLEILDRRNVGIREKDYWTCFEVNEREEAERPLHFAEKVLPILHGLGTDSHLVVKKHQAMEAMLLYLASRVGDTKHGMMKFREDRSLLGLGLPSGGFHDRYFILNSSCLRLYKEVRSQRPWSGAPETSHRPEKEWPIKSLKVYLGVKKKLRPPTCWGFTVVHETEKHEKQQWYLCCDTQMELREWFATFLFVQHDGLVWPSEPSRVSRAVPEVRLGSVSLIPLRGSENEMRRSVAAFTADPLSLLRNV
The assay can be described thus: co-IP; HRMC protein extracts (normal glucose and high glucose); immunoprecipitation with mouse anti-ARAP1 or control mouse IgG, blot with rabbit anti-CIN85.

In assay [2] the target is T2, ARAP1 (mouse) (mouse (endogenous in isolated glomeruli)) (UniProt Q4LDD4).
T2 sequence: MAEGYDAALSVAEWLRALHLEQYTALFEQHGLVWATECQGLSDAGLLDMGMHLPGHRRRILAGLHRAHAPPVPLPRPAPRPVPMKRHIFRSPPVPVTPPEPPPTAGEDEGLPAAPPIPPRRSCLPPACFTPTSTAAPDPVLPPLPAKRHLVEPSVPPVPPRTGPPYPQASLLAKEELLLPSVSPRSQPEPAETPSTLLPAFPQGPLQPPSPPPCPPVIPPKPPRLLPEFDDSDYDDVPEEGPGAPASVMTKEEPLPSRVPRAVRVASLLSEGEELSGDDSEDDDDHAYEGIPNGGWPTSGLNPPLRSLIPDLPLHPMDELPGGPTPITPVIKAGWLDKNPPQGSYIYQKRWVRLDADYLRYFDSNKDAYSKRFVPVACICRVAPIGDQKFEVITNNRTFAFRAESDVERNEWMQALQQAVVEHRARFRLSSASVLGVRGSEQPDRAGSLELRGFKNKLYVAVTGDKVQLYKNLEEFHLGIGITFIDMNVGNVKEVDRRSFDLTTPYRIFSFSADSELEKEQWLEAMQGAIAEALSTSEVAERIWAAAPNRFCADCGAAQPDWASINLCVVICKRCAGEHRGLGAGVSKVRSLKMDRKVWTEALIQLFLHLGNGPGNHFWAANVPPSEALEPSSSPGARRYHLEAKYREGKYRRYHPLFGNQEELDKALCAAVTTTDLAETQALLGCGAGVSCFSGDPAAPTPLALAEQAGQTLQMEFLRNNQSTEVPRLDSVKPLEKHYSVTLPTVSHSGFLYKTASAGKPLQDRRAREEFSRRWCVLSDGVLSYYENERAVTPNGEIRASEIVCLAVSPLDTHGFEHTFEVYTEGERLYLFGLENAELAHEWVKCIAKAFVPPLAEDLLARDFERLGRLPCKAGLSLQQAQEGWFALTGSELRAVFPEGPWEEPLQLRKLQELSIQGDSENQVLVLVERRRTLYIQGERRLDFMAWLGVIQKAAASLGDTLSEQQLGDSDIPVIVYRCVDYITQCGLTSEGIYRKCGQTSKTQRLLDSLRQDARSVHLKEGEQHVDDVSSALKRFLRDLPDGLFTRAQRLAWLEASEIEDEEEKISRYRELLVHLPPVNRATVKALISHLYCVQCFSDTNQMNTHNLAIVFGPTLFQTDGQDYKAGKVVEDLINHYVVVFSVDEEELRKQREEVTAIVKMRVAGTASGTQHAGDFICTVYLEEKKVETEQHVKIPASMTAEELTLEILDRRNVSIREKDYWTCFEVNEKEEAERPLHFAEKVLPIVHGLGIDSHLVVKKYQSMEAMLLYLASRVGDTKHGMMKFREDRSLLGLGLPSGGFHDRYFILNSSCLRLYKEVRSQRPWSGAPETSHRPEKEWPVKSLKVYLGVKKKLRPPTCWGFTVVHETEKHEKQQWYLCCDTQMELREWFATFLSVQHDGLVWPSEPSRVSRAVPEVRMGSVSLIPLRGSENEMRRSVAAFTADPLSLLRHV
Description: co-IP; lysates of isolated mouse glomeruli; Dynabeads Protein G Immunoprecipitation kit; immunoprecipitation with rabbit anti-ARAP1 or control rabbit IgG, blot with rabbit anti-CIN85.

These are yes or no findings as the source states them, for the method shown. Binding seen in cells or lysates may run through a third protein. Some entries that bind do so weakly or less than the wild type.

Consider CIN85 (from UniProt Q96B97 1-665), for which the binding entry in assay [1] is listed as “binds”.

Regarding “CIN85 (mouse) (from UniProt Q8R550 1-709)”, the binding result in assay [2] is “binds”.
